# According to publication PMC11044217 (ACS Omega, 2024):
# How the values were obtained:
# in vitro = conditions: pig, PAMPA, pH 7.4
# Malonaldehyde (MDA) = conditions: 5 mg/kg, compared to scopolamine-treated group
smiles,measurement,setting,value
"COc1cc2c(cc1OC)C(=O)C(CC1CCN(Cc3ccccc3)CC1)C2 (centres unmarked) [Donepezil, reference compound]",Papp at 18 h,in vitro,68 ± 0.61 nm/s
same,MDA level in brain homogenate,Malonaldehyde (MDA),negligible MDA levels
